Measurements from patent US9040727B2, “Histone deacetylase inhibitor of benzamides and use thereof” (Shanghai Institute of Pharmaceutical Industry, priority 2011, dated 2015).
pIC50: −log10 of the molar value. At least one compound was matched to its structure with a doubt left. Some compounds share one wording; it may come from a single statement.

Assays:
[1] = system: HDACs; experiment: In vitro inhibition of HDACs (HDAC Inhibitor Drug Screening Kit); type: biochemical; conditions: for inhibitory activity on HDACs compared with MS-275 (by IC50): comparison with MS-275
Protocol: The test was conducted according to the instructions in the HDAC Inhibitor Drug Screening Kit (Biovision/Catalog #50051, BPS).
Each dilution sample was placed in two wells and the enzyme inhibition IC50 of the compound was tested.

[2] = system: multiple strains of tumor cells; experiment: In vitro inhibition of proliferation of tumor cell strains (overall comparison); type: cell-based; conditions: comparison with MS-275
Protocol: The inhibitory activities of the compounds towards Hut78 T lymphocytic leukemia cells, Jurkat E6-1 human T-cell lymphoma, A549 human lung cancer cells, K562 human chronic myelogenous leukemia cells, Hep3B2.1-7 human liver cancer cells, MDA-MB-435s human breast cancer cells, Colo320 human rectal cancer cell line, and PC-3 human prostate cancer were determined. The inhibition percentages as represented by IC50 values were obtained through CCK-8 method.

Row | Structure (SMILES) | pIC50 [1] | inhibitory activity on HDACs compared with MS-275 (by IC50) [1] | inhibition rate for tumor cells compared with MS-275 [2]
1 | Nc1ccccc1NC(=O)c1ccc(CNC(=O)c2cc3ccccc3[nH]2)cc1 [Compound V-5] | 5.48 | better inhibitory activities than MS-275 | higher inhibition rate for multiple strains of tumor cells as compared with MS-275
2 | Nc1ccccc1NC(=O)c1ccc(CNC(=O)c2cc3ccccc3o2)cc1 [Compound V-8] | 5.74 | better inhibitory activities than MS-275 | 
3 | Nc1ccc(F)cc1NC(=O)c1ccc(CNC(=O)c2cc3ccccc3o2)cc1 [Compound V-9] | 5.40 |  | 
4 | Nc1ccc(-c2ccco2)cc1NC(=O)c1ccc(CNC(=O)c2nc3ccccc3[nH]2)cc1 [Compound V-14] | 5.31 |  | higher inhibition rate for multiple strains of tumor cells as compared with MS-275
5 | Nc1ccccc1NC(=O)c1ccc(CNC(=O)c2cc3cc(C(F)(F)F)ccc3[nH]2)cc1 [Compound V-20] | 5.42 | better inhibitory activities than MS-275 | 
